## Primary screen of a compound library

Sequences of proteins named here, by UniProt entry; tags and fusion partners are left off.
UniProt E9BF75, entry or part of it: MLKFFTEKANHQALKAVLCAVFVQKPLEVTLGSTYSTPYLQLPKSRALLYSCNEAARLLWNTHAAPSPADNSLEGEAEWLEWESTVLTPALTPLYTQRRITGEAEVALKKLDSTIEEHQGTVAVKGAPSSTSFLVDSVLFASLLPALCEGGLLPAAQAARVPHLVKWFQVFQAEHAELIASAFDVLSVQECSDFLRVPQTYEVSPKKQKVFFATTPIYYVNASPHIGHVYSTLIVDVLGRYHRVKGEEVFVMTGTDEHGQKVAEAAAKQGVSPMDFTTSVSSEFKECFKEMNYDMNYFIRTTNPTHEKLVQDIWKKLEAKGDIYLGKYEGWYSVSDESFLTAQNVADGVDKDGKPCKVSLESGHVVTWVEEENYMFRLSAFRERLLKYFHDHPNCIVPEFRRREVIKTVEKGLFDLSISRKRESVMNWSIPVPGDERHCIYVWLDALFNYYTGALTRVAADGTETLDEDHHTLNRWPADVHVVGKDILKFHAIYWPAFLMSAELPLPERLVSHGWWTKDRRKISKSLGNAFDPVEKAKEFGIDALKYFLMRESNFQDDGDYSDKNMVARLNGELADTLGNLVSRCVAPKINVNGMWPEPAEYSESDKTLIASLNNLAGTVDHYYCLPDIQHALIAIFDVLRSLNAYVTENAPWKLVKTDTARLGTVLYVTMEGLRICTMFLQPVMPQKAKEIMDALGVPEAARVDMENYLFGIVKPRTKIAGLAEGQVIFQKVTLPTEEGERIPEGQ

Mtb heat-shock: 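Assay on Mycobacterium tuberculosis, filed only as a heat shock assay from Cornell; the read-out is not stated. The concentration is filed as 10 mM, unlikely as a test dose, so the dose is not known. Direction is inferred from retests: higher values go with stronger inhibition. Size under these conditions: about 69,000 compounds, about 930 of them at 50% or above in at least one test.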
LdMetRS: 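Primary screen of methionyl-tRNA synthetase; the read-out is not stated. Target: Methionyl-tRNA synthetase (putative), Leishmania donovani (UniProt E9BF75). The test concentration is not given. The values are filed as inhibition. Of about 68,000 compounds tested this way, about 24 (0.035%) reached 50% or more in at least one test.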
Mtb growth Cornell: 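Whole-cell assay for inhibitors of Mycobacterium tuberculosis growth, labelled Cornell in the record; the read-out is not stated. The concentration is filed as 10 mM, unlikely as a test dose, so the dose is not known. The record gives no direction; compounds strong in two other growth screens of this library score well above the rest, so higher reads as stronger inhibition. About 53,000 compounds were tested under these conditions; 1.7% (about 900) showed 50% or more at least once.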

Results are percentages, as filed.
The record does not define 0% and 100%; most values in the screen are far below 50% and negative numbers occur (in some assays of this library far below -100).
Compounds were drawn at random from those tested, without regard to their results.
A dash means the value is not listed here; it may have been measured.

| SMILES | Mtb heat-shock | LdMetRS | Mtb growth Cornell |
|---|---|---|---|
| `CCc1nnc2n1CCN(C(=O)c1cnc(-c3cccs3)s1)C2` | -5.133 | 17.01 | -25.02 |
| `CN(C)c1cc(CNC(=O)c2ccccc2S(C)(=O)=O)ccn1` | -16.15 | 16.87 | - |
| `COCc1ccc(OC)c(CNC2CCCNC2=O)c1` (stereo unspecified) | 11.72 | 7.349 | -58.63 |
| `NC(=O)c1cccc(CCNC(=O)N2CCCC2)c1` | -3.329 | 11.5 | 5.538 |
| `CCc1ccccc1OCCN1CC[C@@]2(O)CCNC[C@H]2C1` | - | 7.534 | - |
| `Cc1cnc(C(=O)N2CCCC(n3ccnc3C)C2)cn1` (stereo unspecified) | 1.92 | 9.449 | -1.105 |
| `Cn1ccc(C(=O)NCc2ccccc2Cn2ccnc2)cc1=O` | 4.244 | 6.443 | 2.087 |
| `O=C(O)C(F)(F)F.O=C(O)C(F)(F)F.O=C(O)C(F)(F)F.[H][C@@]12CN(Cc3ccoc3)C[C@]1([H])OCCN2CCN1CCCC1` | -36.78 | - | 23.98 |
| `COCCn1cnc2ccc(NC(=O)C(C)C)cc2c1=O` | 3.398 | 11.26 | 22.16 |
| `O=C(O)C(F)(F)F.[H][C@]12CN(Cc3ccc(C)cc3)C[C@@]1([H])S(=O)(=O)CC[C@@H]2C(=O)N1CCCC1` | -17.28 | - | 21.95 |
| `N#Cc1ccc(OCCN2CCn3c(nnc3C3CC3)C2)cc1` | -23.45 | 5.491 | -47.76 |
| `O=C1NC2(CCCN(C(=O)CCn3cccn3)C2)Oc2ccccc21` (stereo unspecified) | -2.357 | 11.49 | 29.13 |
| `COc1ccc(CN2CCC3(CC2)CC(c2cccnc2)CO3)cc1` (stereo unspecified) | - | 3.046 | - |
| `CCc1cc(NCc2ccc(-n3cncn3)c(C)c2)n(C)n1` | -10.4 | 5.385 | -1.347 |
| `N#Cc1cc(NC(=O)c2ccccc2)ccc1N1CCC(O)CC1` | 5.227 | 14.86 | - |
| `O=C(c1cnn2ccccc12)N1CCCC(OCc2ccccn2)C1` (stereo unspecified) | 3.469 | 7.046 | -3.933 |
| `COc1cccc2c1OCC(C(=O)N(Cc1ccncc1)CC(C)C)C2` (stereo unspecified) | -27.58 | 8.383 | 8.968 |
| `Cc1ccc(Oc2ncccc2CNC2CCSCC2)cn1` | 8.849 | 4.27 | - |
| `O=C(O)C(F)(F)F.[H][C@@]12COC[C@]1(COCC(=O)N(C)C)CN(Cc1ccco1)C2` | -15.83 | - | - |
| `[H][C@]12CC[C@]([H])(CN(Cc3cscn3)C1)N(C(=O)c1cccn1C)C2` | 6.502 | - | -51.48 |
| `COCc1noc(CN2C[C@H](NS(C)(=O)=O)[C@@H](C3CC3)C2)n1` | -21.95 | 5.995 | 15.5 |
| `COc1nn(C)c2c1CCCN(C(=O)c1ccc3c(c1)OCO3)C2.O=C(O)C(F)(F)F` | -10.18 | - | 1.172 |
| `Cc1nc(CN2CCCC(Cn3cc(CCO)nn3)C2)c[nH]1` (stereo unspecified) | -14.58 | 11.23 | - |
| `COCCN1CCN(CC(=O)N(C)Cc2ccc(C)o2)CC1C` (stereo unspecified) | 4.473 | 17.13 | 15.47 |
| `COCC(=O)NCc1cnc(C)nc1-c1cn(C)c2ccc(OC)cc12` | -4.85 | 16.19 | 5.048 |
| `CC(C)NC(=O)N1C[C@H]2C[C@H](C(=O)NCc3ccccc3)[C@@H](C1)O2` | - | 15.88 | - |
| `CC(C)C[C@H](N)C(=O)N1CCSc2ccccc2C1.Cl` | -3.965 | - | 21.39 |
| `O=C(Nc1cccc(OC(F)F)c1)C1CN(S(=O)(=O)C2CC2)C1` | 13.04 | 11.51 | -4.076 |

3 of the entries, repeated:

- COCCN1CCN(CC(=O)N(C)Cc2ccc(C)o2)CC1C (stereo unspecified) : Mtb heat-shock: 4.473%; LdMetRS: 17.13%; Mtb growth Cornell: 15.47%
- CN(C)c1cc(CNC(=O)c2ccccc2S(C)(=O)=O)ccn1 : Mtb heat-shock: -16.15%; LdMetRS: 16.87%
- O=C(O)C(F)(F)F.[H][C@]12CN(Cc3ccc(C)cc3)C[C@@]1([H])S(=O)(=O)CC[C@@H]2C(=O)N1CCCC1 : Mtb heat-shock: -17.28%; Mtb growth Cornell: 21.95%

Source: ChEMBL document CHEMBL3988442, “University of Dundee, Small-Polar-MMV Screening Library” (2021).